In PMC7949094, “Pantoea stewartii WceF is a glycan biofilm-modifying enzyme with a bacteriophage tailspike-like fold” (The Journal of Biological Chemistry, 2021) one finds binding data, which are given here for one molecule.

Results are given in words; binding and its absence hold for the method and conditions named. Some entries that bind do so weakly or less than the wild type.

This experiment has as its target Pantoea stewartii WceF (residues 29-736, lacking the Tat signal peptide) (Pantoea stewartii subsp. stewartii) (UniProt H3REJ8). Put plainly: crystal structure; sitting-drop vapour diffusion at 20 °C; native WceF 8 mg/ml, 20% PEG3350, 200 mM di-ammonium-hydrogen citrate, pH 5.0; three chains in the asymmetric unit; 2.55 Å; both purified.

B1: Pantoea stewartii WceF (residues 29-736, lacking the Tat signal peptide) (enzyme)
chain: KNTGLALKSVDATAIPKGDVPILTPENVYAMPPQFWQNFQGKLWIGRAGSDARQPGNQIPVFLRDANGNLAQITQPITLNKGNFDQFVKDNAALIANPSHAMALEDSNGQTVFNIPDVSQPGQAAFSQRLAQPAGYQLIGEIPSVDDLRKTRPLFEGAKIKLKSWHPGLEVGGGEFVGSFQPAQDDQGVIFSGDGFHWRRVVDDYNRLSLFDFGAIADGKTDSAPAIKAMYQWSQQSDQPICVQFPAGTFFVTGCDFGEEQRRFFRISGAMVNFGYFPATTIVSDGQSPFVFEVSARWVEISNLIFNGNTDTKPNRQGLLRNTCPGGQFFRGACLRFNNVGGTALSLLDTLDCKIDQWYASACTGDVIQAGWSGQKKGNWDHSTAIELSNFNAQHCKGGKVLNLPRCSQSLIHNGWIEHCDNPGDISNGQWIIDALSLEDCKNPLIAWHSRLNTRQTNLQSGSWIDNSEQGDRWLSAWEMGSTRVESYGVAIDGSLKYNYLTSRWLLENNTSQPVWYELANLYSPTVGDSWEIEVFGQSQFNNGTDSEPLMNLIDGRNTGGRAVIHVQRKKDHAEASWSAEGSSPVLDVRYVAKTDTDTQVFIRLAGWTPSAAIMIKSTAKDRFVTGRCARVDAKMAKATPDSGSHAAPQRFSLHNGKAGVGANEQGDLLLASRALSADNVDTRKPEGFVSVVINGKTVALPYFAIKA
notes: WceF of Pantoea stewartii subsp. stewartii DSM 30176, amplified from genomic DNA; recombinant construct residues 29-736 without the N-terminal 28 amino acids of the Tat signal peptide (the methods say aa 28-736); residues 34-736 resolved in the electron density; His6 tag followed by a TEV site, cleaved off for the purified protein; The forward primer encodes ...ENLYFQG-AKNTGL, so a glycine …
With B1, the binding result is “binds”.
